Measurements from article PMC4051164, “Multiple transcription factors directly regulate Hox gene lin-39 expression in ventral hypodermal cells of the C. elegans embryo and larva, including the hypodermal fate regulators LIN-26 and ELT-6”.
The exact form of at least one protein or probe is not confirmed. Where a protein sequence is shown, tags need not be part of it.

Target: T1, TBX-9 (Caenorhabditis elegans) (UniProt Q22289)
T1 sequence (looked up, limits assumed): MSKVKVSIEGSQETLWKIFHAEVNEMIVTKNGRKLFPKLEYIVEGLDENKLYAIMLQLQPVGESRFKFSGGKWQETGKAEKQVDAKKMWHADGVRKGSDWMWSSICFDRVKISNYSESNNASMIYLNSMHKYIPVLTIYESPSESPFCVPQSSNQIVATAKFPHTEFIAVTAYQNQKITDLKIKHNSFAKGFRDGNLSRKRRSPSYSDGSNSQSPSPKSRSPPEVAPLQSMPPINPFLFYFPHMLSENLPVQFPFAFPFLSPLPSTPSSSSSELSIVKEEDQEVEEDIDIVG
Assay: EMSA
Settings: 50 mM KCl, 20 mM HEPES pH 7.9, 0.2 mM EDTA, 0.5 mM DTT, 3 mM MgCl2, 1 ug poly(dI-dC), 0.5 ug/ul BSA, 0-800 ng protein, 20 ul, 20 min on ice (4 C); recombinant protein; protein details: N-terminal 6His (pQE-80L); label: 32P

Question: Does “GTTACACCGTGTTCTCCCTCATCACAGCTATCAGAGCAACTTGTCAAAGTATTTGGACTCCCCGCAGCGGTATCTCTCTTATTGACAGTTGATTTGGGTGTGCACCTTGCGTTCGGACAGCATTGTGCACTTTGTGTTATGTCTTGCGGCTTCTTTTCTACTCTTGACACGCTTGTGATCGATGATGATGATTCGGATTCTAGTGGTGAAGCACTGATGGAGGAAATTAACAAGTTGGGCAAGAGTGGAGGTTATCG (double strand) [YF9]” bind?
Answer: binds
